Assay results taken from PMC7694386.

Chains of the proteins cited; added tags and fusions are not shown.
UniProt O95817: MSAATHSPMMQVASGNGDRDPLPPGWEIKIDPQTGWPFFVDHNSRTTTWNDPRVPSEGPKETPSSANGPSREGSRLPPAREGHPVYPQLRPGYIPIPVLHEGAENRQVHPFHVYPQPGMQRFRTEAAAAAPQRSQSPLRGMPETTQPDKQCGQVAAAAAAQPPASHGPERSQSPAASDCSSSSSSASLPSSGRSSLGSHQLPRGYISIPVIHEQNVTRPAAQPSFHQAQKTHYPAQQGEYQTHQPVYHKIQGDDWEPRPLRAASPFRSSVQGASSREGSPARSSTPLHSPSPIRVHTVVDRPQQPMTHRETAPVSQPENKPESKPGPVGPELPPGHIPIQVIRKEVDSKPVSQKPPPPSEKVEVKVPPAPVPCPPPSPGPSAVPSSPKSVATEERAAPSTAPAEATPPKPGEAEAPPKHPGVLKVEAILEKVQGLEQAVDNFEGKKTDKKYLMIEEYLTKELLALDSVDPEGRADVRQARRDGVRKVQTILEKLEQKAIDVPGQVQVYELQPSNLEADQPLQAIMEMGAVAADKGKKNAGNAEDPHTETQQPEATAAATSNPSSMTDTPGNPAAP

B1: ASNS (protein, UniProt P08243 1-561)
chain: MCGIWALFGSDDCLSVQCLSAMKIAHRGPDAFRFENVNGYTNCCFGFHRLAVVDPLFGMQPIRVKKYPYLWLCYNGEIYNHKKMQQHFEFEYQTKVDGEIILHLYDKGGIEQTICMLDGVFAFVLLDTANKKVFLGRDTYGVRPLFKAMTEDGFLAVCSEAKGLVTLKHSATPFLKVEPFLPGHYEVLDLKPNGKVASVEMVKYHHCRDVPLHALYDNVEKLFPGFEIETVKNNLRILFNNAVKKRLMTDRRIGCLLSGGLDSSLVAATLLKQLKEAQVQYPLQTFAIGMEDSPDLLAARKVADHIGSEHYEVLFNSEEGIQALDEVIFSLETYDITTVRASVGMYLISKYIRKNTDSVVIFSGEGSDELTQGYIYFHKAPSPEKAEEESERLLRELYLFDVLRADRTTAAHGLELRVPFLDHRFSSYYLSLPPEMRIPKNGIEKHLLRETFEDSNLIPKEILWRPKEAFSDGITSVKNSWFKILQEYVEHQVDDAMMANAAQKFPFNTPKTKEGYYYRQVFERHYPGRADWLSHYWMPKWINATDPSARTLTHYKSAVKA
B2: RBFOX1 (protein, UniProt Q9NWB1 1-397)
chain: MNCEREQLRGNQEAAAAPDTMAQPYASAQFAPPQNGIPAEYTAPHPHPAPEYTGQTTVPEHTLNLYPPAQTHSEQSPADTSAQTVSGTATQTDDAAPTDGQPQTQPSENTENKSQPKRLHVSNIPFRFRDPDLRQMFGQFGKILDVEIIFNERGSKGFGFVTFENSADADRAREKLHGTVVEGRKIEVNNATARVMTNKKTVNPYTNGWKLNPVVGAVYSPEFYAGTVLLCQANQEGSSMYSAPSSLVYTSAMPGFPYPAATAAAAYRGAHLRGRGRTVYNTFRAAAPPPPIPAYGGVVYQDGFYGADIYGGYAAYRYAQPTPATAAAYSDSYGRVYAADPYHHALAPAPTYGVGAMNAFAPLTDAKTRSHADDVGLVLSSLQASIYRGGYNRFAPY
B3: RBFOX3 (protein, UniProt A6NFN3 1-312)
chain: MAQPYPPAQYPPPPQNGIPAEYAPPPPHPTQDYSGQTPVPTEHGMTLYTPAQTHPEQPGSEASTQPIAGTQTVPQTDEAAQTDSQPLHPSDPTEKQQPKRLHVSNIPFRFRDPDLRQMFGQFGKILDVEIIFNERGSKGFGFVTFETSSDADRAREKLNGTIVEGRKIEVNNATARVMTNKKTGNPYTNGWKLNPVVGAVYGPEFYAVTGFPYPTTGTAVAYRGAHLRGRGRAVYNTFRAAPPPPPIPTYGAVVYQDGFYGAEIYGGYAAYRYAQPAAAAAAYSDSYGRVYAAADPYHHTIGPAATYSIGTM
B4: CSTF1 (protein, UniProt Q05048 1-431)
chain: MYRTKVGLKDRQQLYKLIISQLLYDGYISIANGLINEIKPQSVCAPSEQLLHLIKLGMENDDTAVQYAIGRSDTVAPGTGIDLEFDADVQTMSPEASEYETCYVTSHKGPCRVATYSRDGQLIATGSADASIKILDTERMLAKSAMPIEVMMNETAQQNMENHPVIRTLYDHVDEVTCLAFHPTEQILASGSRDYTLKLFDYSKPSAKRAFKYIQEAEMLRSISFHPSGDFILVGTQHPTLRLYDINTFQCFVSCNPQDQHTDAICSVNYNSSANMYVTGSKDGCIKLWDGVSNRCITTFEKAHDGAEVCSAIFSKNSKYILSSGKDSVAKLWEISTGRTLVRYTGAGLSGRQVHRTQAVFNHTEDYVLLPDERTISLCCWDSRTAERRNLLSLGHNNIVRCIVHSPTNPGFMTCSDDFRARFWYRRSTTD
B5: CSTF2 (protein, UniProt P33240 1-577)
chain: MAGLTVRDPAVDRSLRSVFVGNIPYEATEEQLKDIFSEVGPVVSFRLVYDRETGKPKGYGFCEYQDQETALSAMRNLNGREFSGRALRVDNAASEKNKEELKSLGTGAPVIESPYGETISPEDAPESISKAVASLPPEQMFELMKQMKLCVQNSPQEARNMLLQNPQLAYALLQAQVVMRIVDPEIALKILHRQTNIPTLIAGNPQPVHGAGPGSGSNVSMNQQNPQAPQAQSLGGMHVNGAPPLMQASMQGGVPAPGQMPAAVTGPGPGSLAPGGGMQAQVGMPGSGPVSMERGQVPMQDPRAAMQRGSLPANVPTPRGLLGDAPNDPRGGTLLSVTGEVEPRGYLGPPHQGPPMHHVPGHESRGPPPHELRGGPLPEPRPLMAEPRGPMLDQRGPPLDGRGGRDPRGIDARGMEARAMEARGLDARGLEARAMEARAMEARAMEARAMEARAMEVRGMEARGMDTRGPVPGPRGPIPSGMQGPSPINMGAVVPQGSRQVPVMQGTGMQGASIQGGSQPGGFSPGQNQVTPQDHEKAALIMQVLQLTADQIAMLPPEQRQSILILKEQIQKSTGAP
B6: PATL1 (protein, UniProt Q86TB9 1-770)
chain: MFRYESLEDCPLDEDEDAFQGLGEEDEEIDQFNDDTFGSGAVDDDWQEAHERLAELEEKLPVAVNEQTGNGERDEMDLLGDHEENLAERLSKMVIENELEDPAIMRAVQTRPVLQPQPGSLNSSIWDGSEVLRRIRGPLLAQEMPTVSVLEYALPQRPPQGPEDDRDLSERALPRRSTSPIIGSPPVRAVPIGTPPKQMAVPSFTQQILCPKPVHVRPPMPPRYPAPYGERMSPNQLCSVPNSSLLGHPFPPSVPPVLSPLQRAQLLGGAQLQPGRMSPSQFARVPGFVGSPLAAMNPKLLQGRVGQMLPPAPGFRAFFSAPPSATPPPQQHPPGPGPHLQNLRSQAPMFRPDTTHLHPQHRRLLHQRQQQNRSQHRNLNGAGDRGSHRSSHQDHLRKDPYANLMLQREKDWVSKIQMMQLQSTDPYLDDFYYQNYFEKLEKLSAAEEIQGDGPKKERTKLITPQVAKLEHAYKPVQFEGSLGKLTVSSVNNPRKMIDAVVTSRSEDDETKEKQVRDKRRKTLVIIEKTYSLLLDVEDYERRYLLSLEEERPALMDDRKHKICSMYDNLRGKLPGQERPSDDHFVQIMCIRKGKRMVARILPFLSTEQAADILMTTARNLPFLIKKDAQDEVLPCLLSPFSLLLYHLPSVSITSLLRQLMNLPQSAATPALSNPHLTAVLQNKFGLSLLLILLSRGEDLQSSDPATESTQNNQWTEVMFMATRELLRIPQAALAKPISIPTNLVSLFSRYVDRQKLNLLETKLQLVQGIR
B7: EIF5B (protein, UniProt O60841 1-1220)
chain: MGKKQKNKSEDSTKDDIDLDALAAEIEGAGAAKEQEPQKSKGKKKKEKKKQDFDEDDILKELEELSLEAQGIKADRETVAVKPTENNEEEFTSKDKKKKGQKGKKQSFDDNDSEELEDKDSKSKKTAKPKVEMYSGSDDDDDFNKLPKKAKGKAQKSNKKWDGSEEDEDNSKKIKERSRINSSGESGDESDEFLQSRKGQKKNQKNKPGPNIESGNEDDDASFKIKTVAQKKAEKKERERKKRDEEKAKLRKLKEKEELETGKKDQSKQKESQRKFEEETVKSKVTVDTGVIPASEEKAETPTAAEDDNEGDKKKKDKKKKKGEKEEKEKEKKKGPSKATVKAMQEALAKLKEEEERQKREEEERIKRLEELEAKRKEEERLEQEKRERKKQKEKERKERLKKEGKLLTKSQREARARAEATLKLLQAQGVEVPSKDSLPKKRPIYEDKKRKKIPQQLESKEVSESMELCAAVEVMEQGVPEKEETPPPVEPEEEEDTEDAGLDDWEAMASDEETEKVEGNKVHIEVKENPEEEEEEEEEEEEDEESEEEEEEEGESEGSEGDEEDEKVSDEKDSGKTLDKKPSKEMSSDSEYDSDDDRTKEERAYDKAKRRIEKRRLEHSKNVNTEKLRAPIICVLGHVDTGKTKILDKLRHTHVQDGEAGGITQQIGATNVPLEAINEQTKMIKNFDRENVRIPGMLIIDTPGHESFSNLRNRGSSLCDIAILVVDIMHGLEPQTIESINLLKSKKCPFIVALNKIDRLYDWKKSPDSDVAATLKKQKKNTKDEFEERAKAIIVEFAQQGLNAALFYENKDPRTFVSLVPTSAHTGDGMGSLIYLLVELTQTMLSKRLAHCEELRAQVMEVKALPGMGTTIDVILINGRLKEGDTIIVPGVEGPIVTQIRGLLLPPPMKELRVKNQYEKHKEVEAAQGVKILGKDLEKTLAGLPLLVAYKEDEIPVLKDELIHELKQTLNAIKLEEKGVYVQASTLGSLEALLEFLKTSEVPYAGINIGPVHKKDVMKASVMLEHDPQYAVILAFDVRIERDAQEMADSLGVRIFSAEIIYHLFDAFTKYRQDYKKQKQEEFKHIAVFPCKIKILPQYIFNSRDPIVMGVTVEAGQVKQGTPMCVPSKNFVDIGIVTSIEINHKQVDVAKKGQEVCVKIEPIPGESPKMFGRHFEATDILVSKISRQSIDALKDWFRDEMQKSDWQLIVELKKVFEII
B8: Transcription factor AP-4 (protein, UniProt Q01664 1-338)
chain: MEYFMVPTQKVPSLQHFRKTEKEVIGGLCSLANIPLTPETQRDQERRIRREIANSNERRRMQSINAGFQSLKTLIPHTDGEKLSKAAILQQTAEYIFSLEQEKTRLLQQNTQLKRFIQELSGSSPKRRRAEDKDEGIGSPDIWEDEKAEDLRREMIELRQQLDKERSVRMMLEEQVRSLEAHMYPEKLKVIAQQVQLQQQQEQVRLLHQEKLEREQQQLRTQLLPPPAPTHHPTVIVPAPPPPPSHHINVVTMGPSSVINSVSTSRQNLDTIVQAIQHIEGTQEKQELEEEQRRAVIVKPVRSCPEAPTSDTASDSEASDSDAMDQSREEPSGDGELP
B9: Protein Njmu-R1 (protein, UniProt Q9HAS0 1-396)
chain: MLPSLQESMDGDEKELESSEEGGSAEERRLEPPSSSHYCLYSYRGSRLAQQRGDSEDGSPSGTNAETPSGDDFSLSLADTNLPSEVEPELRSFIAKRLSRGAVFEGLGNVASVELKIPGYRVGCYYCLFQNEKLLPETVTIDSERNPSEYVVCFLGGSEKGLELFRLELDKYIQGLKNNMNCEARGLESHIKSYLSSWFEDVVCPIQRVVLLFQEKLTFLLHAALSYTPVEVKESDEKTKRDINRFLSVASLQGLIHEGTMTSLCMAMTEEQHKSVVIDCSSSQPQFCNAGSNRFCEDWMQAFLNGAKGGNPFLFRQVLENFKLKAIQDTNNLKRFIRQAEMNHYALFKCYMFLKNCGSGDILLKIVKVEHEEMPEAKNVIAVLEEFMKEALDQSF
B10: DnaJ homolog subfamily C member 7 (protein, UniProt Q99615 1-494)
chain: MAAAAECDVVMAATEPELLDDQEAKREAETFKEQGNAYYAKKDYNEAYNYYTKAIDMCPKNASYYGNRAATLMMLGRFREALGDAQQSVRLDDSFVRGHLREGKCHLSLGNAMAACRSFQRALELDHKNAQAQQEFKNANAVMEYEKIAETDFEKRDFRKVVFCMDRALEFAPACHRFKILKAECLAMLGRYPEAQSVASDILRMDSTNADALYVRGLCLYYEDCIEKAVQFFVQALRMAPDHEKACIACRNAKALKAKKEDGNKAFKEGNYKLAYELYTEALGIDPNNIKTNAKLYCNRGTVNSKLRKLDDAIEDCTNAVKLDDTYIKAYLRRAQCYMDTEQYEEAVRDYEKVYQTEKTKEHKQLLKNAQLELKKSKRKDYYKILGVDKNASEDEIKKAYRKRALMHHPDRHSGASAEVQKEEEKKFKEVGEAFTILSDPKKKTRYDSGQDLDEEGMNMGDFDPNNIFKAFFGGPGGFSFEASGPGNFFFQFG
B11: BTB/POZ domain-containing protein KCTD15 (protein, UniProt Q96SI1 1-283)
chain: MPHRKERPSGSSLHTHGSTGTAEGGNMSRLSLTRSPVSPLAAQGIPLPAQLTKSNAPVHIDVGGHMYTSSLATLTKYPDSRISRLFNGTEPIVLDSLKQHYFIDRDGEIFRYVLSFLRTSKLLLPDDFKDFSLLYEEARYYQLQPMVRELERWQQEQEQRRRSRACDCLVVRVTPDLGERIALSGEKALIEEVFPETGDVMCNSVNAGWNQDPTHVIRFPLNGYCRLNSVQVLERLFQRGFSVAASCGGGVDSSQFSEYVLCREERRPQPTPTAVRIKQEPLD

Target: BAG3 (BCL-2-associated athanogene 3) (human (endogenous in HEK293T)) (UniProt O95817)
Test: affinity purification with mass spectrometry; endogenous BAG3 immunoprecipitated with anti-BAG3 antibody and Protein A/G magnetic beads from HEK293T lysate; cells treated with DMSO (basal) or 10 µM MG132 for 6 h; IgG IP (MG132_IgG) as control; label-free quantification, three biological replicates

binding, binds:
B1
B2
B3
B4
B5
B6
B7
B8
B9
B10
B11

Results are given in words; binding and its absence hold for the method and conditions named. Binding seen in cells or lysates may run through a third protein. Here binding means that the protein was enriched with, or labelled near, the bait; the list need not be complete.
